The values below come from paper PMC9450312.

Protein sequences, listed by entry. Tags and fused reporters are not part of them.
UniProt P35222: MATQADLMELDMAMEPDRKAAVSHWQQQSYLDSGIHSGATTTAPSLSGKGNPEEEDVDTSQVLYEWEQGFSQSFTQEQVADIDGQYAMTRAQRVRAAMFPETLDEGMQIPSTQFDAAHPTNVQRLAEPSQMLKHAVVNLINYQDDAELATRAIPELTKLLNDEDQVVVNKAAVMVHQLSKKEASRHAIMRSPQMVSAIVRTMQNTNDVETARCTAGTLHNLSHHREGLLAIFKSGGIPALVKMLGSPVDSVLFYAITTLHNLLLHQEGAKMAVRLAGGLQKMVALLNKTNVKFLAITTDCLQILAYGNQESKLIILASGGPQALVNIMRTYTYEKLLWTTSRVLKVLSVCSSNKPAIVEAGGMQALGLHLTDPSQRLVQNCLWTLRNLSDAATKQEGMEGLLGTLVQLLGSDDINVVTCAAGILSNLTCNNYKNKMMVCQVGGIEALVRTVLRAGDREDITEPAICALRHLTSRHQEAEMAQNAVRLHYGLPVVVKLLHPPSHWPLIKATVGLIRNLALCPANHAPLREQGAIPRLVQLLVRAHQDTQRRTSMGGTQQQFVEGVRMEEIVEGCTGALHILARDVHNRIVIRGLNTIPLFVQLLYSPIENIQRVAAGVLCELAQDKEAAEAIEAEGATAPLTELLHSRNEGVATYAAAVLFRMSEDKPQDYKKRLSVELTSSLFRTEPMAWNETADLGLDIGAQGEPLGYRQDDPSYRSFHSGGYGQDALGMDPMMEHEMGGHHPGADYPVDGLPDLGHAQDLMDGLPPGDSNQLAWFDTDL
UniProt P17302: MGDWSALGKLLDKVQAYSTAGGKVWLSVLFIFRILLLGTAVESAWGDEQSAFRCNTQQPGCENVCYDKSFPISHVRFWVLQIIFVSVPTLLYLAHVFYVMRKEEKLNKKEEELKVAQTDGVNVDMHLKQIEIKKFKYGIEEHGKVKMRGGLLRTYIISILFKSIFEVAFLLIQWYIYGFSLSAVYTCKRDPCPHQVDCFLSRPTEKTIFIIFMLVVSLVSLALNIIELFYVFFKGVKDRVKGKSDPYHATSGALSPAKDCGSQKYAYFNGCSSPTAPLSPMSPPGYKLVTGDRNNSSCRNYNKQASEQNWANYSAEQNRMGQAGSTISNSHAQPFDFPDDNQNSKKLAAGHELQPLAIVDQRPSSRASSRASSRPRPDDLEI

In the assay the target is β-catenin (human (endogenous in hPDLSCs)) (UniProt P35222). Put plainly: co-IP; hPDLSC lysate incubated overnight with 2.5 µg rabbit anti-β-catenin antibody, Protein A/G Plus magnetic beads overnight at 4 °C; western blotting.

Results are given in words; binding and its absence hold for the method and conditions named. Binding seen in cells or lysates may run through a third protein. Some results given as binding are weak or reduced against the parent protein; the word gives no strength.

In the case of Connexin43 (from UniProt P17302 1-382), the binding result was “binds”.
